Experimental data taken from article doi:10.1101/799536.
These are yes or no findings as the source states them, for the method shown. Binding seen in cells or lysates may run through a third protein. A yes stands for co-enrichment or nearness to the bait. Other partners may have been found. Blank lines part the entries; values can stand above or below the molecule they belong to.

The chains behind the UniProt entries cited, without tags or fusion partners.
UniProt Q924A2: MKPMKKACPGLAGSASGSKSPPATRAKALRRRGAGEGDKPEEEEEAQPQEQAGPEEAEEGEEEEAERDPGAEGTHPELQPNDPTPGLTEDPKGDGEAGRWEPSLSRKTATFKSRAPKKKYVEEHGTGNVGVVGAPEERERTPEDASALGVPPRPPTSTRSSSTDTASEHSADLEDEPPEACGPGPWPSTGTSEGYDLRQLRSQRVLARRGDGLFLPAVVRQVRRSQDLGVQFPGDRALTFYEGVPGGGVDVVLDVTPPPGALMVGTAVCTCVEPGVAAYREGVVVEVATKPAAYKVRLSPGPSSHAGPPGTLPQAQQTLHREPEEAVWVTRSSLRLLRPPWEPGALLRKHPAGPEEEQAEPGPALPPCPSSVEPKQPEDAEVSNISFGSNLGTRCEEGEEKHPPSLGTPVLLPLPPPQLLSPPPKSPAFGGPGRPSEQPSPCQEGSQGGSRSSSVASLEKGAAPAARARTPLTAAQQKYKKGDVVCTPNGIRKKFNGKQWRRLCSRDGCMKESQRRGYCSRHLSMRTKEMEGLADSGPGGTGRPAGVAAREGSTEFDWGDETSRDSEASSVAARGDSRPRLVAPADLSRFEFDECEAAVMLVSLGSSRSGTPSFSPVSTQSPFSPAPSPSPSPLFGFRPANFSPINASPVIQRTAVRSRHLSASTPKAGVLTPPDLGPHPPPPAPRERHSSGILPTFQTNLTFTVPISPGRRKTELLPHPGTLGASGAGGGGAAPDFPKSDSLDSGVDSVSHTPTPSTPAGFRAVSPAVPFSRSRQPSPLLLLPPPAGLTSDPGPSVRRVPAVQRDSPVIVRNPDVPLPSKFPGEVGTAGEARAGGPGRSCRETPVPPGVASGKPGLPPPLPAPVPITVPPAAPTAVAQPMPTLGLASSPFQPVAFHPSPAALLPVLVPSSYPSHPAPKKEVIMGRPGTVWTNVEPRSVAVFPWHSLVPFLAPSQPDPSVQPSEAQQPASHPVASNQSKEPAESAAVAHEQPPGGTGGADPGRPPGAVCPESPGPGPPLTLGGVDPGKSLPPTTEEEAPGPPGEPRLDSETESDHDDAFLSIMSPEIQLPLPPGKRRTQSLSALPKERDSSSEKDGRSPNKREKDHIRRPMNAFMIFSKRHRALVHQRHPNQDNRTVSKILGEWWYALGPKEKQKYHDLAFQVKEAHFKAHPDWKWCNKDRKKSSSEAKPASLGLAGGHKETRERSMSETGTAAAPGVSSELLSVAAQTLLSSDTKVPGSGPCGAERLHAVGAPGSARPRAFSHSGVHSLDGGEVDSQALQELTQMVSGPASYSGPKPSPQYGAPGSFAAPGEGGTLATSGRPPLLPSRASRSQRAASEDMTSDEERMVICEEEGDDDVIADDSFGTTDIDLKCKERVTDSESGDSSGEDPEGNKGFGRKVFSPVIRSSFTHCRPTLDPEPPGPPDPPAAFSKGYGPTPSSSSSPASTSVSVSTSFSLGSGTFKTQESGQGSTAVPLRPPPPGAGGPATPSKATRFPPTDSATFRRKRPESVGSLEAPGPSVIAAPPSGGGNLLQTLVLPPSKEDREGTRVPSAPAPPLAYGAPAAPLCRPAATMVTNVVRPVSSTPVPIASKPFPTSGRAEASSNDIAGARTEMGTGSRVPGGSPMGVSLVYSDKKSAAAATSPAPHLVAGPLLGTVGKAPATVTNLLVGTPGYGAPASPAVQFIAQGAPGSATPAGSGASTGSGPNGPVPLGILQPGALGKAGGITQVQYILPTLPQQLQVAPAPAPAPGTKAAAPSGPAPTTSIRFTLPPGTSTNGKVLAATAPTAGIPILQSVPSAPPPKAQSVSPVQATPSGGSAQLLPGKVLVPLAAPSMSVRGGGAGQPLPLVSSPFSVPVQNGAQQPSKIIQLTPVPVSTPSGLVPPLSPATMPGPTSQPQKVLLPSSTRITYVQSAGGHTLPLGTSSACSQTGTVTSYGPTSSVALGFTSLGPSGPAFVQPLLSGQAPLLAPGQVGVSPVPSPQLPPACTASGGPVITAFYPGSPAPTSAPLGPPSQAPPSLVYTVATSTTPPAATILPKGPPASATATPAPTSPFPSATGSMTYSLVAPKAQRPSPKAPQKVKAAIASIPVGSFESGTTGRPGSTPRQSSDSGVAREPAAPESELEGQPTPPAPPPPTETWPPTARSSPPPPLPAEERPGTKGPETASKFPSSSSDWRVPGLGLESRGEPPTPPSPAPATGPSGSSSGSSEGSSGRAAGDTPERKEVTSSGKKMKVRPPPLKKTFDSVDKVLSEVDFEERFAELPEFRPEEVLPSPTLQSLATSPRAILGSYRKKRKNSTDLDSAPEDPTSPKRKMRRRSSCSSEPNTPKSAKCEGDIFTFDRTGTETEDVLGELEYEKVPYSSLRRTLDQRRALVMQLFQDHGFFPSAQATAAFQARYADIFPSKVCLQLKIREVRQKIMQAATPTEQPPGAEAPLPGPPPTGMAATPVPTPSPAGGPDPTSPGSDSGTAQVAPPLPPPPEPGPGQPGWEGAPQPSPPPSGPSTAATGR
UniProt E9Q4N7: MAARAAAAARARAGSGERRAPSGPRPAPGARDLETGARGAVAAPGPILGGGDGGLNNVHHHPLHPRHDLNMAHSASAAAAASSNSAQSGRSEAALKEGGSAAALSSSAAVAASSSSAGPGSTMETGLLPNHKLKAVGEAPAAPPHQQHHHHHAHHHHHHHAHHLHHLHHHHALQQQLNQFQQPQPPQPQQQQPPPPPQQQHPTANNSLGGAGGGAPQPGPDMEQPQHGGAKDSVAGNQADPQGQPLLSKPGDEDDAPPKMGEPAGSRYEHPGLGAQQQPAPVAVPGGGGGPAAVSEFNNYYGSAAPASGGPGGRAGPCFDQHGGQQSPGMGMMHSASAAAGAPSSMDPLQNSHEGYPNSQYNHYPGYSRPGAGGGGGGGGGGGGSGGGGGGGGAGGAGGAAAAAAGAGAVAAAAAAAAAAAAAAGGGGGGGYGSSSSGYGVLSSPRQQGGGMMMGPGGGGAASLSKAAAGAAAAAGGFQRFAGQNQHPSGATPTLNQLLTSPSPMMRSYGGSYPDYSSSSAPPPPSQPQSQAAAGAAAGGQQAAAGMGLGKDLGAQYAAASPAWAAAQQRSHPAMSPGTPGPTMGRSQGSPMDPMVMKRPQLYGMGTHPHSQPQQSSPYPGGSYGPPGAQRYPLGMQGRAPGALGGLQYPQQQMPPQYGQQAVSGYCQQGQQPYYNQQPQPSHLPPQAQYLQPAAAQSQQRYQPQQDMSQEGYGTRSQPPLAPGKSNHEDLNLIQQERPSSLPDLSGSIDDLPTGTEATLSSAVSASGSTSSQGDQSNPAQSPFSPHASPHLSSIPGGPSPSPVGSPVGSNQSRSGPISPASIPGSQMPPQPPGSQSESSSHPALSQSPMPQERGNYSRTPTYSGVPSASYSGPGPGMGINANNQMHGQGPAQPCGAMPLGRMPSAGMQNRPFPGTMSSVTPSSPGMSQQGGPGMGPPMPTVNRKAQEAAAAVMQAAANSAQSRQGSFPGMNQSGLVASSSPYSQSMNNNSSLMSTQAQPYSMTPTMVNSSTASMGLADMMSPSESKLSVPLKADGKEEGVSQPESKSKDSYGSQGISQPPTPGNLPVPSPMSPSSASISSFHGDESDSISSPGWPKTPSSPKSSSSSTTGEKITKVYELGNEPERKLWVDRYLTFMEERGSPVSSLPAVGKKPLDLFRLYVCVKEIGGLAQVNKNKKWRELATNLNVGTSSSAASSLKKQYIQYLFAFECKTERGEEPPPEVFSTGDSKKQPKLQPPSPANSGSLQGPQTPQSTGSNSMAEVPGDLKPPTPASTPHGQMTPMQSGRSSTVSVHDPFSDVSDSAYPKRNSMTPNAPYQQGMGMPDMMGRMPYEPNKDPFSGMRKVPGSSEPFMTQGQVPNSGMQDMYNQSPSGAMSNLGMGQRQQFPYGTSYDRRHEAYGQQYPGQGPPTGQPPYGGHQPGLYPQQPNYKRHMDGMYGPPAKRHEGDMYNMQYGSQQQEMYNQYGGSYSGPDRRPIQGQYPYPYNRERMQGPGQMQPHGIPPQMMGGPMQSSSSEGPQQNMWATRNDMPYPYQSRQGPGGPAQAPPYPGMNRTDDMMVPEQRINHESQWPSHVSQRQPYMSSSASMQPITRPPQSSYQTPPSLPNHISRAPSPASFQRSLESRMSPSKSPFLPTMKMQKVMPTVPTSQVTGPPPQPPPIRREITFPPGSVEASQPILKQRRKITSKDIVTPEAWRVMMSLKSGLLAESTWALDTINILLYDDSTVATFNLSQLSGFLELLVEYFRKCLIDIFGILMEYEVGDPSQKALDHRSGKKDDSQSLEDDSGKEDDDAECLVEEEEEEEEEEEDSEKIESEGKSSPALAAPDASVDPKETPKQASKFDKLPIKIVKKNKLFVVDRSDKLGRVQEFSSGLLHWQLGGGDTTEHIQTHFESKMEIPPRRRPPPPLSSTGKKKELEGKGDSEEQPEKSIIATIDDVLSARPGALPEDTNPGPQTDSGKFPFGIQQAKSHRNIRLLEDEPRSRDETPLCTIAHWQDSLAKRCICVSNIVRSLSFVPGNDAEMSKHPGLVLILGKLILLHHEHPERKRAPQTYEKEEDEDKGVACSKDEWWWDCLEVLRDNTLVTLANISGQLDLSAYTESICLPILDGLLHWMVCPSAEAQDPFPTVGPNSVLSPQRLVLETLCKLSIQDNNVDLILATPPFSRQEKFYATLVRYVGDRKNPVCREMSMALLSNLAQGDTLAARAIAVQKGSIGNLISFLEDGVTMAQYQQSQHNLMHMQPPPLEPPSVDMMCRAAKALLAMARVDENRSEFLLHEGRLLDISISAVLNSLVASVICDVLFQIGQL
UniProt P97496: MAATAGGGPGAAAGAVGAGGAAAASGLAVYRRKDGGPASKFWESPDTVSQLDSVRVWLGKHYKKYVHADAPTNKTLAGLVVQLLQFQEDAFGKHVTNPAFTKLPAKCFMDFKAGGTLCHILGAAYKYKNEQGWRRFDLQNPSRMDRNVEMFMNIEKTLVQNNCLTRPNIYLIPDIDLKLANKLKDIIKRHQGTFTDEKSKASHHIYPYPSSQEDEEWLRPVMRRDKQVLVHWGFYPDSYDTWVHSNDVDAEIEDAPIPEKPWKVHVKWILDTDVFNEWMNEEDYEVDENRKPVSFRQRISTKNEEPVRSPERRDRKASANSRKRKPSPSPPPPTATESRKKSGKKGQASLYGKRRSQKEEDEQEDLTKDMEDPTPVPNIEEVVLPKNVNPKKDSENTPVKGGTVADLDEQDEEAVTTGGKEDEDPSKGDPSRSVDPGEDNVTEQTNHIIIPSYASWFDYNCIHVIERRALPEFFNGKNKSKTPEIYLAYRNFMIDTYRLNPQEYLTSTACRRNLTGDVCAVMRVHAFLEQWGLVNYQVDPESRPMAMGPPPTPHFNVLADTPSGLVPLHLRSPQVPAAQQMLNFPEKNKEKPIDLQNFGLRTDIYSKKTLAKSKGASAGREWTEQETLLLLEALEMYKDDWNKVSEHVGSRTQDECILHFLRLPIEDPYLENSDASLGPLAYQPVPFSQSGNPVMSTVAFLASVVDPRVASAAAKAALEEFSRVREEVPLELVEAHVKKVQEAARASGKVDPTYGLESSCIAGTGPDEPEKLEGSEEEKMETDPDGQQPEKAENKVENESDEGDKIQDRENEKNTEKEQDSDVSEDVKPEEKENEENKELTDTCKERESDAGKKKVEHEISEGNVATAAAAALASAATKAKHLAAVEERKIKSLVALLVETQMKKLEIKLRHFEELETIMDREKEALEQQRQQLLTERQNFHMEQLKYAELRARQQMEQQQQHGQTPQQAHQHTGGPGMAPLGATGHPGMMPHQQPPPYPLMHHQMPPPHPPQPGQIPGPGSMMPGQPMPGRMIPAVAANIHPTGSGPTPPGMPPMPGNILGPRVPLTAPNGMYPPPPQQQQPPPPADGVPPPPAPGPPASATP

Biological target: Capicua (CIC) (mouse (endogenous in P1 and P0.5 brain)) (UniProt Q924A2)
Test: affinity purification with mass spectrometry

Molecule: BRG1 (SMARCA4) (from UniProt Q3TKT4 1-1613)
binding: binds

Molecule: ARID1B (from UniProt E9Q4N7 1-2306)
binding: binds

Molecule: ARID1A (from UniProt A2BH40 1-2283)
binding: binds

B1: ACLY (protein, UniProt Q91V92 1-1091)
chain: MSAKAISEQTGKELLYKYICTTSAIQNRFKYARVTPDTDWAHLLQDHPWLLSQSLVVKPDQLIKRRGKLGLVGVNLSLDGVKSWLKPRLGHEATVGKAKGFLKNFLIEPFVPHSQAEEFYVCIYATREGDYVLFHHEGGVDVGDVDAKAQKLLVGVDEKLNTEDIKRHLLVHAPEDKKEVLASFISGLFNFYEDLYFTYLEINPLVVTKDGVYILDLAAKVDATADYICKVKWGDIEFPPPFGREAYPEEAYIADLDAKSGASLKLTLLNPKGRIWTMVAGGGASVVYSDTICDLGGVNELANYGEYSGAPSEQQTYDYAKTILSLMTREKHPEGKILIIGGSIANFTNVAATFKGIVRAIRDYQGPLKEHEVTIFVRRGGPNYQEGLRVMGEVGKTTGIPIHVFGTETHMTAIVGMALGHRPIPNQPPTAAHTANFLLNASGSTSTPAPSRTASFSESRADEVAPAKKAKPAMPQGKSATLFSRHTKAIVWGMQTRAVQGMLDFDYVCSRDEPSVAAMVYPFTGDHKQKFYWGHKEILIPVFKNMADAMKKHPEVDVLINFASLRSAYDSTMETMNYAQIRTIAIIAEGIPEALTRKLIKKADQKGVTIIGPATVGGIKPGCFKIGNTGGMLDNILASKLYRPGSVAYVSRSGGMSNELNNIISRTTDGVYEGVAIGGDRYPGSTFMDHVLRYQDTPGVKMIVVLGEIGGTEEYKICRGIKEGRLTKPVVCWCIGTCATMFSSEVQFGHAGACANQASETAVAKNQALKEAGVFVPRSFDELGEIIQSVYEDLVAKGAIVPAQEVPPPTVPMDYSWARELGLIRKPASFMTSICDERGQELIYAGMPITEVFKEEMGIGGVLGLLWFQRRLPKYSCQFIEMCLMVTADHGPAVSGAHNTIICARAGKDLVSSLTSGLLTIGDRFGGALDAAAKMFSKAFDSGIIPMEFVNKMKKEGKLIMGIGHRVKSINNPDMRVQILKDFVKQHFPATPLLDYALEVEKITTSKKPNLILNVDGFIGVAFVDMLRNCGSFTREEADEYVDIGALNGIFVLGRSMGFIGHYLDQKRLKQGLYRHPWDDISYVLPEHMSM
binding: binds

Now from value to molecule:

binding: binds
Molecule: SMARCC1 (BAF155) (from UniProt P97496 1-1104)

binding: binds
Molecule: SMARCA2 (BAF190B, BRM) (from UniProt Q6DIC0 1-1577)

binding: binds
Molecule: SVIL, an actin-binding protein encoded by supervillin gene (from UniProt Q8K4L3 1-2170)
